Where two headings read alike, the source gives them in different places. Results are given in words; binding and its absence hold for the method and conditions named. Some binding calls cover weakened binding; strength is not graded here. Sequences can lack the tags named with a protein.
T1: eEF3 (eukaryotic elongation factor 3), C-terminally TAP-tagged (S. cerevisiae) (UniProt P16521)
T1 sequence: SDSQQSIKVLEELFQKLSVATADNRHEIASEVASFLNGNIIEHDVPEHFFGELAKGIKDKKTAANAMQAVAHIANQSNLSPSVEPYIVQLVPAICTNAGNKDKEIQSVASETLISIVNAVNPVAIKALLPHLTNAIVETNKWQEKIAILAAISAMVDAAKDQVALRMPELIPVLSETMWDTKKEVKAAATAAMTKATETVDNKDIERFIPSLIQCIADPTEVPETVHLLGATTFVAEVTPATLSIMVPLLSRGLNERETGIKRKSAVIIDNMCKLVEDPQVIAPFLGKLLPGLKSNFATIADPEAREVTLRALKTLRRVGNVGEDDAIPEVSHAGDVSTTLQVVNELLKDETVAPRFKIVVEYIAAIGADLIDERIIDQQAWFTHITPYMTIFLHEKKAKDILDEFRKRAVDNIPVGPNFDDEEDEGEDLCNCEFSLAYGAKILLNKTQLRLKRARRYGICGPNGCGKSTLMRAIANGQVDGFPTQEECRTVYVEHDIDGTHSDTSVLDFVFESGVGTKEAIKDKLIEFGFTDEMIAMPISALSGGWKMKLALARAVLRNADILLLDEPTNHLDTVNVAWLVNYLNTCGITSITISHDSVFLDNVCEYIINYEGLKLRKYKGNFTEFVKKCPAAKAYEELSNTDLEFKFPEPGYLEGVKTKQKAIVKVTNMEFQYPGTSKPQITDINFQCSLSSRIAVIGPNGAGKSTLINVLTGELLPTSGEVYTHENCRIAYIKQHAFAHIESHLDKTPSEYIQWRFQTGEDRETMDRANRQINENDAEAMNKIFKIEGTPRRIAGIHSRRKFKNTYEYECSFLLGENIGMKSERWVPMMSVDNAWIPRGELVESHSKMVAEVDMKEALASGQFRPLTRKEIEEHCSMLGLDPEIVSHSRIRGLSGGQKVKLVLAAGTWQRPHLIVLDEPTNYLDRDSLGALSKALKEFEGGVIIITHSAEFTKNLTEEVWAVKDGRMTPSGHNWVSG

The chains behind the UniProt entries cited, without tags or fusion partners.
UniProt P0CX43: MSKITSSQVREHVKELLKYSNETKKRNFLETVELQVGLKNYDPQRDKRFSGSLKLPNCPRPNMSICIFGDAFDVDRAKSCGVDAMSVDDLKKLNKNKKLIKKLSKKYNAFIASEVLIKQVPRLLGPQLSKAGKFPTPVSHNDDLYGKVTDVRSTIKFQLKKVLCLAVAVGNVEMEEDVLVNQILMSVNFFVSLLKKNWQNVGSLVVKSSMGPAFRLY


What was measured:
[1] = target: T1, eEF3 (eukaryotic elongation factor 3), C-terminally TAP-tagged (S. cerevisiae); experiment: cryo-EM structure
[2] = target: T1, eEF3 (eukaryotic elongation factor 3), C-terminally TAP-tagged (S. cerevisiae); experiment: cryo-EM structure; remark: listed apart in the source

Row | Molecule | binding [1] | binding [2]
1 | ribosomal protein uL1 (from UniProt P0CX43 1-217) | binds | 
2 | ribosomal protein uS13 (protein, UniProt P0CX55 1-146) MSLVVQEQGSFQHILRLLNTNVDGNIKIVYALTTIKGVGRRYSNLVCKKADVDLHKRAGELTQEELERIVQIMQNPTHYKIPAWFLNRQNDITDGKDYHTLANNVESKLRDDLERLKKIRAHRGIRHFWGLRVRGQHTKTTGRRRA |  | binds
3 | ribosomal protein uL18 (protein, UniProt P26321 1-297) MAFQKDAKSSAYSSRFQTPFRRRREGKTDYYQRKRLVTQHKAKYNTPKYRLVVRFTNKDIICQIISSTITGDVVLAAAYSHELPRYGITHGLTNWAAAYATGLLIARRTLQKLGLDETYKGVEEVEGEYELTEAVEDGPRPFKVFLDIGLQRTTTGARVFGALKGASDGGLYVPHSENRFPGWDFETEEIDPELLRSYIFGGHVSQYMEELADDDEERFSELFKGYLADDIDADSLEDIYTSAHEAIRADPAFKPTEKKFTKEQYAAESKKYRQTKLSKEERAARVAAKIAALAGQQ |  | binds
